{"source": "the supplement of paper PMC7024190", "note": "“And” between values parts separate entries of the source, which are not always exact repeats. Equal values may be shown once. This is one part of the list. Repeats in this data set agree poorly, so a single value says little.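 Human embryonic kidney cells were transiently transfected with a plasmid bearing a Renilla luciferase gene under the HSV-TK promoter. This first-round screen tests roughly ten thousand compounds for ones that increase reporter output.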"}
{"system": "HEK 293FT", "experiment": "log relative Renilla luciferase luminescence (reporter expression vs reference, reference not stated) (log (base not stated)); higher = higher recombinant reporter expression", "conditions": "10 µM; time after transfection 48 h"}
{"compound": "CC(NC(C)(C)C)C(=O)c1cccc(Cl)c1", "note": "(configuration not stated)", "log": "-0.239 and 0.00632"}
{"compound": "CS(=O)(=O)Nc1ccc(Cc2noc(-c3ccc4[nH]cc(CCN)c4c3)n2)cc1", "log": 0.0898}
{"compound": "CCOC(=O)c1cncn1[C@H](C)c1ccccc1", "log": -0.145}
{"compound": "c1ccc(Cn2ccnc2)cc1", "log": 0.141}
{"compound": "COc1cc(N)c(Cl)cc1C(=O)NC1CN2CCC1CC2", "note": "(configuration not stated) [Zacopride]", "log": 0.165}
{"compound": "CN1C(=O)CN=C(c2ccccc2)c2cc([N+](=O)[O-])ccc21", "note": "[Nimetazepam]", "log": -0.507}
{"compound": "C[C@]12CCC(=O)C=C1CC[C@@H]1[C@@H]2CC[C@@]2(C)[C@H]1CC[C@]2(C)O", "note": "[Methyltestosterone]", "log": -0.058}
{"compound": "Cc1ncc2n1-c1ccc(Cl)cc1C(c1ccccc1F)=NC2", "log": -0.19}
{"compound": "c1ccc2c3c([nH]c2c1)CNCC3", "log": 0.0745}
{"compound": "N=C(NCc1ccc(Cl)cc1)SCCCc1c[nH]cn1", "note": "[Clobenpropit]", "log": -0.685}
{"compound": "Oc1ccc2c3c1O[C@H]1c4[nH]c5ccccc5c4C[C@@]4(O)[C@@H](C2)N(CC2CC2)CC[C@]314", "note": "[Naltrindole]", "log": 0.178}
{"compound": "C[C@]12C/C(=C/O)C(=O)C[C@@H]1CC[C@@H]1[C@@H]2CC[C@@]2(C)[C@H]1CC[C@]2(C)O", "note": "[Oxymetholone]", "log": -0.0927}
{"compound": "CC(C)CC(N(C)C)C1(c2ccc(Cl)cc2)CCC1", "note": "(configuration not stated)", "log": -0.00677}
{"compound": "COc1ccc2[nH]cc(C3=CCNCC3)c2c1", "log": 0.197}
{"compound": "CCCCC/C=C\\C/C=C\\C/C=C\\C/C=C\\CCCC(=O)Nc1ccc(O)cc1", "log": 0.131}
{"compound": "O=C1Nc2ccc(Cl)cc2C(c2ccccc2Cl)=NC1O", "note": "(configuration not stated) [Lorazepam]", "log": -0.0165}
{"compound": "NCCc1ccccn1", "log": -0.144}
